# The supplement of paper PMC8728848
# The other results are listed elsewhere or left out.
# B1: Vd7LysM (Verticillium dahliae) (protein)
# chain: RRGPEPKYPPAAGTSSYCSYWVDYEGDKSCSRVLEDNVVVLKDFARWNPTVGADCSGIKAGNSYCVEAFGEPEPIEVTTTTRAATTTTQPTATTTTFANGIATPQPTQSGMVTNCNKFHWIAEGVSCSQVISFQKITLADFVKWNPSVKSDCSGMWAGVNVCVGVVGSSTDTAKPTTTAPSNGVVTPQPTQPSMVTNCNKFHWIAKGVTCQQVISYQKISLADFVKWNPSVLSDCSGMWAEVQVCVGVIGSTPTTLATTTTTAGNGVSTPLPTQPGMVTNCAKFHWVAKGVTCNQIYSFQKITLEQFVSYNPTVKSDCSGMQAEVQVCVGLIAGTTPTTTRPPTTTAPGNGVSTPQPTQPGMVTNCAKFHWVAKGVTCNQIYSFQKITLEQFVSFNPTVKSDCTGMQAEVNVCVGLIGGNPTPTQTGNGIATPTPIQPGMVSNCKKFHWIAQGVTCQQVISFQKITLADFVKWNTGVGSDCRTMWAETNVCVGV
# Experiments:
# Test in all cases: glycan array binding signal (z-score within array); higher = stronger binding
# Details in all cases: glycan notation: IUPAC condensed, linker removed
# Neu5Ac(a2-3)GalNAc = molecular target: Neu5Ac(a2-3)GalNAc
# Procedure, shortened: (§1)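 Glycan array data were curated from 3228 arrays in the Consortium for Functional Glycomics database and kept only where the protein sequence was available. Glycan names were converted to IUPAC-condensed notation, and columns mapping to the same glycan were averaged. The binding signal is a within-array Z-score, averaged across arrays of the same protein sequence at different concentrations or buffers and across linkers. Negative Z-scores can be read as non-binding.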
# [1] = molecular target: Neu5Ac(a2-3)GalNAc(b1-4)GlcNAc
# Procedure, shortened: as §1
# [2] = molecular target: Neu5Ac(a2-3)[GalNAc(b1-4)]Gal(b1-4)Glc
# Procedure, shortened: as §1
# [3] = molecular target: Neu5Ac(a2-3)[GalNAc(b1-4)]Gal(b1-4)GlcNAc
# Procedure, shortened: as §1
# [4] = molecular target: Neu5Ac(a2-3)[GalNAc(b1-4)]Gal(b1-4)GlcNAc(b1-3)GalNAc
# Procedure, shortened: as §1
# [5] = molecular target: Neu5Ac(a2-3)[Neu5Ac(a2-6)]GalNAc
# Procedure, shortened: as §1
# Neu5Ac(a2-6)Gal = molecular target: Neu5Ac(a2-6)Gal
# Procedure, shortened: as §1
# [6] = molecular target: Neu5Ac(a2-6)Gal(b1-3)GlcNAc(b1-3)[Gal(b1-4)GlcNAc(b1-6)]Gal(b1-4)Glc
# Procedure, shortened: as §1
# Neu5Ac(a2-6)Gal(b1-4)Glc = molecular target: Neu5Ac(a2-6)Gal(b1-4)Glc
# Procedure, shortened: as §1
# [7] = molecular target: Neu5Ac(a2-6)Gal(b1-4)GlcNAc
# Procedure, shortened: as §1
# [8] = molecular target: Neu5Ac(a2-6)Gal(b1-4)GlcNAc(b1-2)Man
# Procedure, shortened: as §1
# [9] = molecular target: Neu5Ac(a2-6)Gal(b1-4)GlcNAc(b1-2)Man(a1-3)Man(b1-4)GlcNAc(b1-4)GlcNAc
# Procedure, shortened: as §1
# [10] = molecular target: Neu5Ac(a2-6)Gal(b1-4)GlcNAc(b1-2)Man(a1-3)[Gal(b1-4)GlcNAc(b1-2)Man(a1-6)]Man(b1-4)GlcNAc(b1-4)GlcNAc
# Procedure, shortened: as §1
# [11] = molecular target: Neu5Ac(a2-6)Gal(b1-4)GlcNAc(b1-2)Man(a1-3)[GlcNAc(b1-2)Man(a1-6)]Man(b1-4)GlcNAc(b1-4)GlcNAc
# Procedure, shortened: as §1
# [12] = molecular target: Neu5Ac(a2-6)Gal(b1-4)GlcNAc(b1-2)Man(a1-3)[GlcNAc(b1-4)][Neu5Ac(a2-6)Gal(b1-4)GlcNAc(b1-2)Man(a1-6)]Man(b1-4)GlcNAc(b1-4)GlcNAc
# Procedure, shortened: as §1
# [13] = molecular target: Neu5Ac(a2-6)Gal(b1-4)GlcNAc(b1-2)Man(a1-3)[Man(a1-6)]Man(b1-4)GlcNAc(b1-4)GlcNAc
# Procedure, shortened: as §1
# [14] = molecular target: Neu5Ac(a2-6)Gal(b1-4)GlcNAc(b1-2)Man(a1-3)[Neu5Ac(a2-3)Gal(b1-4)GlcNAc(b1-2)Man(a1-6)]Man(b1-4)GlcNAc(b1-4)GlcNAc
# Procedure, shortened: as §1
# [15] = molecular target: Neu5Ac(a2-6)Gal(b1-4)GlcNAc(b1-2)Man(a1-3)[Neu5Ac(a2-6)Gal(b1-4)GlcNAc(b1-2)Man(a1-6)]Man(b1-4)GlcNAc(b1-4)GlcNAc
# Procedure, shortened: as §1
# [16] = molecular target: Neu5Ac(a2-6)Gal(b1-4)GlcNAc(b1-2)Man(a1-3)[Neu5Ac(a2-6)Gal(b1-4)GlcNAc(b1-2)Man(a1-6)]Man(b1-4)GlcNAc(b1-4)[Fuc(a1-6)]GlcNAc
# Procedure, shortened: as §1
# [17] = molecular target: Neu5Ac(a2-6)Gal(b1-4)GlcNAc(b1-2)Man(a1-6)Man(b1-4)GlcNAc(b1-4)GlcNAc
# Procedure, shortened: as §1
# [18] = molecular target: Neu5Ac(a2-6)Gal(b1-4)GlcNAc(b1-2)Man(a1-6)[Gal(b1-4)GlcNAc(b1-2)Man(a1-3)]Man(b1-4)GlcNAc(b1-4)GlcNAc
# Procedure, shortened: as §1
# [19] = molecular target: Neu5Ac(a2-6)Gal(b1-4)GlcNAc(b1-2)Man(a1-6)[GlcNAc(b1-2)Man(a1-3)]Man(b1-4)GlcNAc(b1-4)GlcNAc
# Procedure, shortened: as §1
# [20] = molecular target: Neu5Ac(a2-6)Gal(b1-4)GlcNAc(b1-2)Man(a1-6)[Man(a1-3)]Man(b1-4)GlcNAc(b1-4)GlcNAc
# Procedure, shortened: as §1
# [21] = molecular target: Neu5Ac(a2-6)Gal(b1-4)GlcNAc(b1-2)[Neu5Ac(a2-6)Gal(b1-4)GlcNAc(b1-4)]Man(a1-3)[GlcNAc(b1-4)][Neu5Ac(a2-6)Gal(b1-4)GlcNAc(b1-2)[Neu5Ac(a2-6)Gal(b1-4)GlcNAc(b1-6)]Man(a1-6)]Man(b1-4)GlcNAc(b1-4)GlcNAc
# Procedure, shortened: as §1
# [22] = molecular target: Neu5Ac(a2-6)Gal(b1-4)GlcNAc(b1-2)[Neu5Ac(a2-6)Gal(b1-4)GlcNAc(b1-4)]Man(a1-3)[GlcNAc(b1-4)][Neu5Ac(a2-6)Gal(b1-4)GlcNAc(b1-4)Man(a1-6)]Man(b1-4)GlcNAc(b1-4)GlcNAc
# Procedure, shortened: as §1
# [23] = molecular target: Neu5Ac(a2-6)Gal(b1-4)GlcNAc(b1-2)[Neu5Ac(a2-6)Gal(b1-4)GlcNAc(b1-6)]Man(a1-6)[Neu5Ac(a2-6)Gal(b1-4)GlcNAc(b1-2)Man(a1-3)][GlcNAc(b1-4)]Man(b1-4)GlcNAc(b1-4)GlcNAc
# Procedure, shortened: as §1
# [24] = molecular target: Neu5Ac(a2-6)Gal(b1-4)GlcNAc(b1-3)Gal(b1-3)GlcNAc
# Procedure, shortened: as §1
# [25] = molecular target: Neu5Ac(a2-6)Gal(b1-4)GlcNAc(b1-3)Gal(b1-4)GlcNAc
# Procedure, shortened: as §1
# [26] = molecular target: Neu5Ac(a2-6)Gal(b1-4)GlcNAc(b1-3)Gal(b1-4)GlcNAc(b1-2)Man(a1-3)[Neu5Ac(a2-6)Gal(b1-4)GlcNAc(b1-3)Gal(b1-4)GlcNAc(b1-2)Man(a1-6)]GalNAc
# Procedure, shortened: as §1
# [27] = molecular target: Neu5Ac(a2-6)Gal(b1-4)GlcNAc(b1-3)Gal(b1-4)GlcNAc(b1-3)Gal(b1-4)GlcNAc
# Procedure, shortened: as §1
# [28] = molecular target: Neu5Ac(a2-6)Gal(b1-4)GlcNAc(b1-3)Gal(b1-4)GlcNAc(b1-3)Gal(b1-4)GlcNAc(b1-2)Man(a1-3)[Neu5Ac(a2-6)Gal(b1-4)GlcNAc(b1-3)Gal(b1-4)GlcNAc(b1-3)Gal(b1-4)GlcNAc(b1-2)Man(a1-6)]GalNAc
# Procedure, shortened: as §1
# [29] = molecular target: Neu5Ac(a2-6)Gal(b1-4)GlcNAc(b1-3)Gal(b1-4)GlcNAc(b1-3)GalNAc
# Procedure, shortened: as §1
# [30] = molecular target: Neu5Ac(a2-6)Gal(b1-4)GlcNAc(b1-3)Gal(b1-4)GlcNAc(b1-3)[Neu5Ac(a2-6)Gal(b1-4)GlcNAc(b1-3)Gal(b1-4)GlcNAc(b1-6)]GalNAc
# Procedure, shortened: as §1
# [31] = molecular target: Neu5Ac(a2-6)Gal(b1-4)GlcNAc(b1-3)Gal(b1-4)GlcNAc(b1-6)[Gal(b1-3)]GalNAc
# Procedure, shortened: as §1
# [32] = molecular target: Neu5Ac(a2-6)Gal(b1-4)GlcNAc(b1-3)Gal(b1-4)[Fuc(a1-3)]GlcNAc(b1-3)Gal(b1-4)[Fuc(a1-3)]GlcNAc
# Procedure, shortened: as §1
# [33] = molecular target: Neu5Ac(a2-6)Gal(b1-4)GlcNAc(b1-3)GalNAc
# Procedure, shortened: as §1
# [34] = molecular target: Neu5Ac(a2-6)Gal(b1-4)GlcNAc(b1-3)[Neu5Ac(a2-6)Gal(b1-4)GlcNAc(b1-6)]GalNAc
# Procedure, shortened: as §1
binder,measurement,setting,value
B1,glycan array binding signal (z-score),Neu5Ac(a2-3)GalNAc,-0.824
same,glycan array binding signal (z-score),[1],-0.631
same,glycan array binding signal (z-score),[2],-0.671
same,glycan array binding signal (z-score),[3],-0.069
same,glycan array binding signal (z-score),[4],-0.641
same,glycan array binding signal (z-score),[5],-1.03
same,glycan array binding signal (z-score),Neu5Ac(a2-6)Gal,0.198
same,glycan array binding signal (z-score),[6],-0.706
same,glycan array binding signal (z-score),Neu5Ac(a2-6)Gal(b1-4)Glc,-0.668
same,glycan array binding signal (z-score),[7],-0.527
same,glycan array binding signal (z-score),[8],-0.848
same,glycan array binding signal (z-score),[9],0.363
same,glycan array binding signal (z-score),[10],0.214
same,glycan array binding signal (z-score),[11],-0.209
same,glycan array binding signal (z-score),[12],-0.115
same,glycan array binding signal (z-score),[13],2.4
same,glycan array binding signal (z-score),[14],0.213
same,glycan array binding signal (z-score),[15],0.121
same,glycan array binding signal (z-score),[16],0.236
same,glycan array binding signal (z-score),[17],-0.657
same,glycan array binding signal (z-score),[18],-0.667
same,glycan array binding signal (z-score),[19],-1.3
same,glycan array binding signal (z-score),[20],-0.481
same,glycan array binding signal (z-score),[21],-0.212
same,glycan array binding signal (z-score),[22],-0.785
same,glycan array binding signal (z-score),[23],-1.31
same,glycan array binding signal (z-score),[24],-0.033
same,glycan array binding signal (z-score),[25],-0.403
same,glycan array binding signal (z-score),[26],2.01
same,glycan array binding signal (z-score),[27],0.068
same,glycan array binding signal (z-score),[28],-0.435
same,glycan array binding signal (z-score),[29],-0.576
same,glycan array binding signal (z-score),[30],1.12
same,glycan array binding signal (z-score),[31],-0.146
same,glycan array binding signal (z-score),[32],1.17
same,glycan array binding signal (z-score),[33],-0.733
same,glycan array binding signal (z-score),[34],0.903

# No new results follow: entries from further up.
binder,measurement,setting,value
B1,glycan array binding signal (z-score),[31],-0.146
same,glycan array binding signal (z-score),[32],1.17
